# Measurements as given in article PMC12823551.
# Protein sequences, listed by entry. Tags and fused reporters are not part of them.
# UniProt Q01094: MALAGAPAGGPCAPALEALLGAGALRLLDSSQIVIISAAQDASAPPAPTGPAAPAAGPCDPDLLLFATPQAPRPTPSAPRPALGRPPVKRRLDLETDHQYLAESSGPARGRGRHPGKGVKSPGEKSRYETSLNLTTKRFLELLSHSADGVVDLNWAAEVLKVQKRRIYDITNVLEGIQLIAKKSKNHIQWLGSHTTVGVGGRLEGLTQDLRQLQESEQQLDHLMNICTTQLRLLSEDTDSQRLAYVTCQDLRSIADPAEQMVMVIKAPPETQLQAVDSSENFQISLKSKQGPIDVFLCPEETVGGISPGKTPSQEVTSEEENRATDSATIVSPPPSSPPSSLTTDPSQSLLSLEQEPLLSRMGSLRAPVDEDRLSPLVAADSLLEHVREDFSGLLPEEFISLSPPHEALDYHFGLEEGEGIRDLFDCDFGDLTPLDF
# UniProt Q08999: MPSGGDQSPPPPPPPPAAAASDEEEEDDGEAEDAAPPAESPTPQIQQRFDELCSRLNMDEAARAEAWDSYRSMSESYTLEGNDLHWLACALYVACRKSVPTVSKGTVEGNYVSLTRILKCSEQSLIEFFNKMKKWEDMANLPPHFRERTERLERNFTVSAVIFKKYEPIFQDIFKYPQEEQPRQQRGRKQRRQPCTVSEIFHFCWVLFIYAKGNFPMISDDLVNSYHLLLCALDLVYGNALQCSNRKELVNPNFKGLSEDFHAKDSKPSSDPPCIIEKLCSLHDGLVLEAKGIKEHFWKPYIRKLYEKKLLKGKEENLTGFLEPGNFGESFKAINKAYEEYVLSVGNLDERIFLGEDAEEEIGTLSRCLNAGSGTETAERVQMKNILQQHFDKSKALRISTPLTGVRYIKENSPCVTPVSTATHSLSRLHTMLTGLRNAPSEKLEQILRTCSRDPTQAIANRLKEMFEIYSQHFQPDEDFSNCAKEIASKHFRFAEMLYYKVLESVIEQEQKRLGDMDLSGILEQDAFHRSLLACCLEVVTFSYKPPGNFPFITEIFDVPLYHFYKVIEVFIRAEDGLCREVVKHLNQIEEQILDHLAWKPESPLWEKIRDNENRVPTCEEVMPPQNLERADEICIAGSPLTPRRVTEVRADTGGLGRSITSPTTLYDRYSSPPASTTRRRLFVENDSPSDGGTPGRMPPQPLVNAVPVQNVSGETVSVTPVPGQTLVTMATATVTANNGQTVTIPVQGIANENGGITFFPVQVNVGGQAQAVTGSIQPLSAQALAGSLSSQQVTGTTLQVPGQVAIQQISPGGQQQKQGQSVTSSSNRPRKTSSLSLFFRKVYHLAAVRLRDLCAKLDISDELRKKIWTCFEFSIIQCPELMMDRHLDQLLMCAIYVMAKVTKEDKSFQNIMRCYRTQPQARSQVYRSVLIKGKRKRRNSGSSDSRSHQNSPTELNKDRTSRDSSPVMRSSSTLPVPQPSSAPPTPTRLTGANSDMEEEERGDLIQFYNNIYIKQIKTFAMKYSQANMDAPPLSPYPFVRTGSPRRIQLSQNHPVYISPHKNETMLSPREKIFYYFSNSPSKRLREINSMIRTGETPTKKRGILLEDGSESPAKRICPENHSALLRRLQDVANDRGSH
# Results are given in words; binding and its absence hold for the method and conditions named. Binding seen in cells or lysates may run through a third protein. Some binding calls cover weakened binding; strength is not graded here.
# Molecular target: E2F1 (human (endogenous in hPSC-derived neuroectoderm cells)) (UniProt Q01094)
# Assay: co-IP; neuroectoderm cells; nuclear and chromatin (Benzonase) extracts in Nuclear Lysis Buffer with 0.3% Triton X-100; 5 ug cross-linked antibodies, 12 h at 4 C; five washes; western blot; alternatively the nuclear complex co-IP kit (Active Motif)
substance,measurement,value
RBL2/p130 (from UniProt Q08999 1-1139),binding,binds weakly
